Patent publication EP2138545B1, “USE OF PORPHYRAZINE DERIVATIVE AS SEMICONDUCTOR” (Hiroshima University, priority 2007, dated 2008)

Assay: FET characteristic evaluation of bottom-gate/top-contact type FET element prepared by spin coating
Conditions: for Ion/Ioff / Vth / µFET: Treated with OTS

Compound | carrier mobility (OTS treatment, annealing state not given) | Ion/Ioff (Annealing at 100°C) | Vth (Annealing at 100°C) [V] | µFET (Annealing at 100°C) | Ion/Ioff (No annealing) | Vth (No annealing) [V] | µFET (No annealing) | carrier mobility (p-type) (treated with OTS, before annealing, in the atmosphere)
CCCCc1cc2c(s1)-c1nc-2nc2[nH]c(nc3nc(nc4[nH]c(n1)c1cc(CCCC)sc41)-c1cc(CCCC)sc1-3)c1cc(CCCC)sc21 [1a, Tetrakis(5-butylthiopheno)[2.3-b]porphyrazine] | over 10^-4 cm^2/Vs | 10^2 | -18.5 | 4.75×10^-4 cm^2V^-1s^-1 | 10 | -15.8 | 1.65×10^-4 cm^2V^-1s^-1 | –
CCCCCCCCCCCCc1cc2c(s1)-c1nc-2nc2[nH]c(nc3nc(nc4[nH]c(n1)c1cc(CCCCCCCCCCCC)sc41)-c1cc(CCCCCCCCCCCC)sc1-3)c1cc(CCCCCCCCCCCC)sc21 [1b, Tetrakis(5-dodecylthiopheno)[2.3-b]porphyrazine] | – | 5×10^4 | -12.6 | 7.11×10^-2 cm^2V^-1s^-1 | 10^4 | -10.1 | 2.87×10^-2 cm^2V^-1s^-1 | over 10^-2 cm^2/Vs
